Test results taken from paper PMC9848270, “Synthesis and biological assessment of indole derivatives containing penta-heterocycles scaffold as novel anticancer agents towards A549 and K562 cells” (Journal of Enzyme Inhibition and Medicinal Chemistry, 2023).

System: human non-small cell lung cancer cells (A549)
Experiment: MTT antiproliferative assay, A549
Type: cell-based
Conditions: selectivity index, ratio CC50 (HEK293)/IC50 (A549)
Experimental: A549, PC-3, HepG2 and K562 cells were purchased from the Kunming cell bank of the Chinese academy of sciences. All cell lines were cultured in DMEM or RPMI 1640 complete medium. Logarithmic growth cells were cultured in 96-well plates at a concentration of 10^4 cells per well and pre-cultured for 24 h before adding test compounds. The MTT test with 5-Fluorouracil and Gefitinib as reference compounds were used to evaluate antiproliferative activity of target compounds in four human cancer line cells. For the estimation of the inhibition concentration (IC50), the Graph Pad Prism (GraphPad Software, San Diego, CA) was used.

## Nn1c(SCC(=O)Nc2cc(-c3c[nH]c4ccccc34)n[nH]2)nnc1-c1cccnc1 [Compound 11h, N-(3-(1H-indol-3-yl)-1H-pyrazol-5-yl)-2-((4-amino-5-(pyridine-3-yl)-4H-1,2,4-triazol-3-yl)thio)acetamide]
  SI (A549): 1.56
